Data taken from ChEMBL document CHEMBL3988442, “University of Dundee, Small-Polar-MMV Screening Library” (2021).

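Assay of Toxoplasma gondii numbers, read through their beta-galactosidase reporter with a colour substrate. Compounds at 10 µM. Higher reads as fewer parasites (inferred from which compounds were picked for retests). Size under these conditions: about 67,000 compounds, about 260 of them at 50% or above in at least one test.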

Each number is a percent effect as filed.
The controls that fix the scale are not given in the record; negative values are as filed.
Compounds were drawn at random from those tested, without regard to their results.

compound	percent effect
Cc1cccc(C)c1OC1CN(C(=O)C2CC(=O)N(C(C)(C)C)C2)C1 (stereo not drawn)	-0.1725
CCC(C)N(Cc1cnc(OC)nc1)Cc1ccsc1 (stereo not drawn)	12.73
CS(=O)(=O)c1ccccc1-n1cc(NC(=O)CC2C=CCC2)cn1 (stereo not drawn)	17.48
Cc1cc(C)c(C(=O)NC2CCN(c3ncccc3C#N)CC2)c(=O)[nH]1	1.092
Cc1ccc(F)c(NC(=O)CCC(=O)N(C)Cc2cc(C3CC3)[nH]n2)c1	11.04
COCCCNC(=O)c1c(-n2cnnn2)sc2c1CCC2	-8.848
CCCc1nc(C(=O)N(C)Cc2cnn(-c3cccc(OC)c3)c2)cs1	14.45
Cc1nc(CN2CCCC(N(C)Cc3nc(C)c(C)o3)C2)no1 (stereo not drawn)	2.895
O=C(O)C(F)(F)F.[H][C@@]12CN(Cc3ccc(F)cc3)C[C@]1([H])C(=O)N(c1ccsc1)C2	-12.29
O=C(NCCc1ccccn1)Nc1cc(C(F)(F)F)c[nH]c1=O	14.69
O=C(NCCCn1ccnn1)C1CCCN(C2CCCC2)C1 (stereo not drawn)	-11.06
O=C(O)C(F)(F)F.O=C(O)C(F)(F)F.O=C(O)c1cc2c(nc1-c1ccsc1)CCN(C1CCOC1)CC2 (stereo not drawn)	1.996
CC(NCc1c(C(C)C)nn(C)c1N1CCOCC1)C(=O)N(C)C (stereo not drawn)	11.27
Cc1cnn(CC2CCCCN2C(=O)c2c(C)noc2C)c1 (stereo not drawn)	14.99
CC(C)c1sc(Cl)nc1C(=O)N1CCN(c2ccccn2)CC1	-12.23
CCS(=O)(=O)N1CCC2(CCN(Cc3cccc(OC)c3)CC2)CC1.O=C(O)C(F)(F)F	5.013
Cn1cc(C2CCCN2CC(=O)N(CCC#N)Cc2ccco2)cn1 (stereo not drawn)	25.18
COc1cccc(N2CCC(CNc3cc(C)nc4ncnn34)C2)c1 (stereo not drawn)	2.027
COCCCNC(=O)Nc1ccc(F)c(C(N)=O)c1	11.32
Cc1ncc(CN(C)C2CCCN(CCc3ccccc3)C2)n1C (stereo not drawn)	5.677
CCc1nnsc1C(=O)N1CCCN(Cc2cnn(CC)c2)CC1	3.127
CC(=O)c1cccc(CN2CC(Oc3ccccc3C)C2)c1	-4.587
Cc1noc(C)c1CN1CCC2(CC1)CC(Oc1cccnc1)C2.O=C(O)C(F)(F)F.O=C(O)C(F)(F)F	-4.045
Cn1c(=O)n(C)c2nc(Cl)c(CC(=O)c3ccccc3)n2c1=O	-2.483
Oc1cc(C2CCCCN2Cc2cccs2)nc(-c2ccccn2)n1 (stereo not drawn)	91.06
Cc1ccc(CN2CC3(CCNCC3)CCC2=O)c(F)c1F	9.544
CN1C(=O)C(C)(C)COc2cc(NS(=O)(=O)Cc3ccccc3)ccc21	0.2189
O=C(c1ccccc1)N1CCN(C2CCc3ccc(F)cc32)CC1 (stereo not drawn)	-4.93
Cc1nn(C)cc1C1SCC(=O)Nc2c1c(O)nn2C(C)C (stereo not drawn)	-9.23
Cc1cc(C2CCCN(C(=O)c3ccc(OCC4CC4)nc3)C2)n[nH]1 (stereo not drawn)	-4.588
Cc1nc(C)n(CC2CCCN2Cc2ccn(-c3ccccc3)n2)n1 (stereo not drawn)	-3.893
COCCC(=O)N1Cc2cnc(Cc3ccc(OC)cc3)nc2C1	-6.167
Cn1c(N)c2c(=O)n(C)c(-c3ccc(Cl)cc3)cc2c(C#N)c1=O	3.42
CCc1nccn1-c1cncc(C2CCCN2Cc2ccccc2)n1 (stereo not drawn)	28.58
O=C(c1cccs1)N1CCc2ncc(Cn3cncn3)n2CC1	-32.41
CC(C)(C(N)=O)N1CCN(C(=O)c2ccn(-c3cccc(Cl)c3)n2)CC1	-33.68
O=C(C1CCCC1)N1CCN(Cc2nc(-c3ccco3)no2)CC1	9.801
O=C(CCc1cc2n(n1)CCCN(C(=O)[C@H]1CCCO1)C2)NC1CC1	2.528
CN1CC2(CCN(C(=O)c3ccc4nccnc4c3)CC2)CC1=O	5.13
[H][C@@]12CN(C(=O)c3ccc(C)nc3)C[C@]1([H])OCCN2C(C)C	-14.53
[H][C@@]12CN(C(=O)N(C)C)C[C@]1([H])C(=O)NC21CCN(C(=O)NC(C)C)CC1	0.9879
CC(C)C(=O)N1CCC2(CC1)NC(=O)c1ccccc12.Cl	-6.634
Cn1cc(CN2CCCC(Cn3cc(CCCO)nn3)C2)cn1 (stereo not drawn)	-12.07
COc1ccc(NC(=O)C(C)(C)C)cc1OCc1cccnc1	-16.96
[H][C@]12CC[C@@]3(N=C(c4ccccc4)NC3=O)[C@@]1([H])CN(C(=O)NC)C2	23.52
CCC(CN1CCOCC1)n1cncc1-c1ccc2c(c1)CCCN2C.Cl (stereo not drawn)	-8.592
CCc1[nH]c2c(CNC(=O)C3CCC(=O)NC3)cc(C)cc2c1C (stereo not drawn)	-26.6
COc1ccc(CN2CCC3(CC(C(=O)NCC(C)C)=NO3)C2)cc1 (stereo not drawn)	6.805
COCC1CN(C(=O)CC2Cc3ccccc3C2)Cc2c1cnn2C (stereo not drawn)	-22.51
CN1CCN(C(CNC(=O)CCn2cccn2)c2cccs2)CC1 (stereo not drawn)	0.5507
Cc1cc(O)c(OCC(=O)/N=c2\[nH]c(C)c(C)s2)cn1	-12.78
O=C(CN1CCOC(CNc2cccnn2)C1)NCc1cccs1 (stereo not drawn)	-25.09
O=C(O)C(F)(F)F.c1ccc(N2CCOC3(CCCN(c4nncs4)C3)C2)nc1 (stereo not drawn)	-0.9978
O=C(Cc1cccnc1)N1CCCC(c2cc(C(F)(F)F)[nH]n2)C1 (stereo not drawn)	-39.99
Cc1ccc2nc(NCCN3CCOCC3)n(C)c(=O)c2c1	-1.834

The last 4 entries again:

compound,percent effect
O=C(CN1CCOC(CNc2cccnn2)C1)NCc1cccs1 (stereo not drawn),-25.09
O=C(O)C(F)(F)F.c1ccc(N2CCOC3(CCCN(c4nncs4)C3)C2)nc1 (stereo not drawn),-0.9978
O=C(Cc1cccnc1)N1CCCC(c2cc(C(F)(F)F)[nH]n2)C1 (stereo not drawn),-39.99
Cc1ccc2nc(NCCN3CCOCC3)n(C)c(=O)c2c1,-1.834